tested on: acyl-CoA synthetase, acyl-CoA oxidase and multi-active enzyme (β-oxidation cycle); experiment: Quantitative determination of various fatty acids with the composition for assay (reduced NAD, 340 nm); assay type: biochemical; details: 25 μl sample of fatty acid (0.05 μmole) in 3.00 ml composition, 37° C., 5 minutes

| SMILES | OD340nm |
| --- | --- |
| CCCCCCCC/C=C\CCCCCCCC(=O)O [Oleic acid] | 0.628 |
| CCCCCC(=O)O [Caproic acid] | 0.089 |
| CCCCCCCC(=O)O [Caprylic acid] | 0.175 |
| CCCCC/C=C\C/C=C\CCCCCCCC(=O)O [Linolic acid] | 0.619 |
| CCCCCCCCCC(=O)O [Capric acid] | 0.267 |
| CCCCCCCCCCCCCCCC(=O)O [Palmitic acid] | 0.530 |
| CCCCCC/C=C\CCCCCCCC(=O)O [Palmitoleic acid] | 0.529 |
| CCCCCCCCCCCCCC(=O)O [Myristic acid] | 0.444 |
| CCCCCCCCCCCCCCCCCC(=O)O [Stearic acid] | 0.622 |
| CCCCCCCCCCCC(=O)O [Lauric acid] | 0.356 |
| CC/C=C\C/C=C\C/C=C\CCCCCCCC(=O)O [Linolenic acid] | 0.630 |
